Test results from US20240285628A1.

The chains behind the UniProt entries cited, without tags or fusion partners.
UniProt P30968, whole entry: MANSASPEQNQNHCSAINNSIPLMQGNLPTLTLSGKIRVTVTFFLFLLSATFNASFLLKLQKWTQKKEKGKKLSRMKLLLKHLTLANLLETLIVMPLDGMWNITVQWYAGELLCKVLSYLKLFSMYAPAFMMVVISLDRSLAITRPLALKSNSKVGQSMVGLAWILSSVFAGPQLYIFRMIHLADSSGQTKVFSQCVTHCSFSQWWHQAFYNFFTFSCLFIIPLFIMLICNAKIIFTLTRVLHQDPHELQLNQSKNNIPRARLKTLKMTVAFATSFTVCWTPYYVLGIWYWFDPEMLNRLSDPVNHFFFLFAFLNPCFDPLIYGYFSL
UniProt P30874, whole entry: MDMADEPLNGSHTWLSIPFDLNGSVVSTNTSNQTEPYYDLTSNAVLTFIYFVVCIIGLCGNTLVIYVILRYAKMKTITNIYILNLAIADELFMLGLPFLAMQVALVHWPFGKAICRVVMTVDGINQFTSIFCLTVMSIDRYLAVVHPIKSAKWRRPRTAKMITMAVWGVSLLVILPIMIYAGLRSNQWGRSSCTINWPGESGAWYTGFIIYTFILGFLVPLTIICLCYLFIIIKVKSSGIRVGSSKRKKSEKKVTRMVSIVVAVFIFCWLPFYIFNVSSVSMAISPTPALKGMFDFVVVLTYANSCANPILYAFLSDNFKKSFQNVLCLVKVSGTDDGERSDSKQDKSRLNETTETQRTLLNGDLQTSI

Tests used:
[1] = target: human GnRH receptor (Homo sapiens, UniProt P30968); test: Functional IP-One assay for GnRHR; settings: read-out: Conjugate Activity (EC50), Peptide GPCR GnRH, FlpIn T-Rex 293 cells expressing human GnRH receptor
[2] = target: human somatostatin receptor subtype 2 (Homo sapiens, UniProt P30874); test: Functional cAMP assay for SSTR2 agonists; settings: Peptide GPCR SST2
[3] = read-out: Conjugate Activity (EC50), CHO-K1 cells expressing human SSTR2, cAMP
[4] = read-out: NP Ligand activity EC50, value of the unconjugated NP ligand of the conjugate shown in the row, not of the conjugate itself

For `CC[C@H](C)[C@@H]([C@@H](CC(=O)N1CCC[C@H]1[C@H](OC)[C@@H](C)C(=O)NCCc1ccccn1)OC)N(C)C(=O)[C@@H](NC(=O)[C@H](C(C)C)N(C)CCOCCOCCOCCNc1nc(OC)c(NC(=O)c2ccc(Oc3cc4c(cc3C)CCC4(C)C)o2)c(OC)n1)C(C)C`, the EC50 [1] was 4.1 nM.
Compound `COc1cc2cc(c1Cl)N(C)C(=O)CC(OC(=O)C(C)N(C)C(=O)CCC(C)(C)SSCCCC(=O)NCCOCCOCCOCCOCCOCCOCCOCCOCCC(=O)N1CCN(c3ncc(-c4cc(C)cc(F)c4)c(N4CCC(N)CC4)c3-c3nc4ccc(Cl)cc4[nH]3)CC1)C1(C)OC1C(C)C1CC(O)(NC(=O)O1)C(OC)C=CC=C(C)C2` (centres unmarked) has an EC50 [2, 3] of 0.74 nM and an EC50 [2, 4] of 8.7 nM.
`CCC(C)C(C(CC(=O)N1CCCC1C(OC)C(C)C(=O)NC(C)C(O)c1ccccc1)OC)N(C)C(=O)C(NC(=O)C(C(C)C)N(C)C(=O)OCc1ccc(NC(=O)C(CCCNC(N)=O)NC(=O)C(NC(=O)CCCC(=O)NCCOCCOCCOCCOCCOCCOCCOCCOCCC(=O)N2CCN(c3ncc(-c4cc(C)cc(F)c4)c(N4CCC(N)CC4)c3-c3nc4ccc(Cl)cc4[nH]3)CC2)C(C)C)cc1)C(C)C` (centres unmarked) gave an EC50 [2, 3] of 1.5 nM and an EC50 [2, 4] of 8.7 nM.

Like-named read-outs stand apart in the source and are kept apart here. The structures given here were assigned with low confidence; some may be wrong.
